Data published in PubChem BioAssay AID2685 (National Center for Advancing Translational Sciences (NCATS), 2010).
The other results are listed elsewhere or left out. These are further read-outs of the screen, such as a control signal, another cell line or another target. No call is given for them. Most of these compounds were active or inconclusive in the main read-out, so they are no random draw. Potencies come from curve fits of mixed quality, noted in brackets.

Assay: qHTS Assay for Lipid Storage Modulators in Drosophila S3 Cells;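 as to cell number change: cells counted by Cell Tracker Red CMTPX staining in the red channel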
Conditions: BODIPY lipid droplet fluorescence, 18-24 h; for cell number change: measured here: cell count max response, cells fed with added oleic acid
Outline: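 Drosophila S3 cells loaded with oleic acid (400 uM, as added) and compounds at several concentrations; lipid droplets imaged by 488-nm laser-scanning cytometry, 500–530 nm intensity and object ratio to cell channel. Percent activity normalized to 20 uM Triacsin C.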

[1] = measured here: cell number channel AC50, cells fed with added oleic acid
[2] = measured here: lipid fluorescence (Fed channel) AC50, cells fed with added oleic acid

CN(C)C(=O)c1ccc(-n2nc(C(F)(F)F)c3c2CCCC3)cc1
cell number change: -6.28% | AC50 [1]: 0.517 µM [rising, partial curve] | AC50 [2]: 2.31 µM [rising, partial curve]

CCOC(=O)Cc1csc(NC(=O)c2cccc(OC)c2)n1
cell number change: -0.156%

O=C1/C(=C\c2cccc(O)c2)SC(=S)N1Cc1ccccc1
cell number change: -34.7% | AC50 [1]: 11.6 µM [falling, partial curve, poor fit]

C(=N\n1cnnc1)/c1ccccn1
cell number change: -11.3% | AC50 [2]: 29.1 µM [falling, single point]

CCNc1nc(NC(C)C)nc(Nn2cnnc2)n1
cell number change: -24.8% | AC50 [1]: 0.82 µM [falling, full curve, poor fit] | AC50 [2]: 3.66 µM [falling, full curve]

COc1ccc(C(=O)NC(=S)NNC(=O)COc2ccccc2)cc1
cell number change: -12.4%

O=C(CSc1nc2ccsc2c(=O)n1NC(=O)c1ccccc1)Nc1nccs1
cell number change: -21.5% | AC50 [2]: 29.1 µM [falling, partial curve, poor fit]

COC(=O)c1cc2cc(NS(=O)(=O)c3ccc(C)cc3)ccc2s1
cell number change: -64.6% | AC50 [1]: 20.6 µM [falling, partial curve] | AC50 [2]: 20.6 µM [falling, partial curve]

CCN1C(=O)C(O)(CC(=O)c2ccc3c(c2)OCCO3)c2ccccc21 (stereo unspecified)
cell number change: 14.2% | AC50 [2]: 0.731 µM [rising, full curve, poor fit]

CC(c1ccccc1)n1c(-c2ccncc2)n[nH]c1=S (stereo unspecified)
cell number change: 4.14% | AC50 [2]: 29.1 µM [rising, single point]

Cc1cccc(C)c1NC(=O)CC(NCc1ccco1)C(=O)O (stereo unspecified)
cell number change: -105% | AC50 [1]: 25.9 µM [falling, partial curve, poor fit] | AC50 [2]: 0.184 µM [falling, full curve]

O=C(/C=C/c1ccccc1)N1CCC(c2ccccc2)C1 (stereo unspecified)
cell number change: 11.7%

C[C@@H]1C(=O)OC[C@H]1NC(=O)OCc1ccccc1
cell number change: -10.4% | AC50 [2]: 0.651 µM [rising, full curve, poor fit]

Cc1cc(NC(=O)CSc2cc(Cl)ccc2Cl)n(-c2ccccc2)n1
cell number change: -21.8% | AC50 [2]: 4.11 µM [falling, full curve]

O=S(=O)(c1ccc(NC(=S)N2CCN(c3ccccc3F)CC2)cc1)N1CCOCC1
cell number change: -6.89%

COCCNC(=O)c1cn(CCOC)c(=O)c2c1c1ccccc1n2C
cell number change: 41.4% | AC50 [1]: 29.1 µM [rising, single point]

COc1ccc(C(=O)Nc2ccccc2C(=O)N2CCOCC2)cc1
cell number change: -8.75% | AC50 [2]: 0.184 µM [rising, single point]

CCC(C)N(NC(C)=O)c1nc(Cl)nc(NC(C)(C)C)n1 (stereo unspecified)
AC50 [1]: 6.51 µM [falling, single point] | AC50 [2]: 6.51 µM [falling, single point]

CC(=O)N1CCN(Cc2nc3cc(NC(=O)c4ccc(F)cc4)ccc3n2C)CC1
cell number change: 16.3% | AC50 [2]: 3.66 µM [falling, single point]

CCC(=O)NNc1nc2c(C)cccc2s1
cell number change: 25.3% | AC50 [2]: 0.0517 µM [rising, full curve, poor fit]

COc1cc(NS(=O)(=O)c2ccc(NC(=S)NC(=O)/C=C/c3ccco3)cc2)ncn1
cell number change: 31.1% | AC50 [2]: 3.66 µM [rising, full curve, poor fit]

CC(=O)N1c2ccc(S(=O)(=O)N3CCC(C(=O)Nc4ncccc4C)CC3)cc2CC1C (stereo unspecified)
AC50 [1]: 0.0058 µM [falling, full curve, poor fit]

CCCCOc1cccc(C(=O)N(Cc2ccccc2)C2CCS(=O)(=O)C2)c1 (stereo unspecified)
cell number change: -23% | AC50 [2]: 14.6 µM [falling, partial curve]

FCCCOc1ccc(-c2ccnc(-c3ccccc3)n2)cc1
cell number change: -10% | AC50 [2]: 29.1 µM [falling, single point]

CCN1C(=O)CSC1=Nc1ccc(C(=O)O)cc1
cell number change: -4.01% | AC50 [2]: 0.58 µM [falling, single point]

Cc1ccc2[nH]c3c(=O)n(N)c(C)nc3c2c1
cell number change: 45.2% | AC50 [1]: 0.00517 µM [rising, full curve, poor fit] | AC50 [2]: 0.00517 µM [rising, full curve]

CCc1noc(C)c1C(=O)OC(C)C(=O)Nc1ccccc1OC (stereo unspecified)
cell number change: 49.8% | AC50 [1]: 13 µM [rising, partial curve, poor fit]

Cc1ccc(NC2CCCN(C(=O)c3c(C)noc3C)C2)cc1C (stereo unspecified)
cell number change: -0.293% | AC50 [2]: 8.2 µM [rising, partial curve]

CC(C)(C)C(=O)Cn1ncc(N2CCOCC2)c(Br)c1=O
cell number change: 26.4% | AC50 [1]: 4.47 µM [rising, full curve, poor fit]

CC(C)NC(=O)CN(Cc1ccc2c(c1)OCO2)C(=O)CCC(=O)Nc1ccccn1
AC50 [2]: 14.6 µM [falling, partial curve]

COC(=O)c1ccc(CSc2nncn2C)cc1
cell number change: -4.81% | AC50 [2]: 5.8 µM [rising, full curve, poor fit]

O=C(Nc1ccc(Cl)cc1)Nc1cc([N+](=O)[O-])ccc1F
cell number change: -68.4% | AC50 [1]: 29.1 µM [falling, single point] | AC50 [2]: 29.1 µM [falling, single point]

Cc1ccc(C)c(OCC(=O)Nc2cccc(S(=O)(=O)NC3=NCCCCC3)c2)c1
cell number change: -28.6% | AC50 [2]: 35.5 µM [falling, single point]

Cc1ccc(C(=O)NC(C#N)=C(Cl)Cl)cc1
cell number change: -31.5% | AC50 [1]: 0.82 µM [falling, full curve, poor fit] | AC50 [2]: 0.651 µM [falling, full curve, poor fit]

Cc1nc2cc(-c3ccc(Cl)cc3)nn2c(C)c1CCC(=O)NC(C)c1ccc2c(c1)OCCO2 (stereo unspecified)
cell number change: 27.6% | AC50 [2]: 3.26 µM [rising, single point]

COc1ccc(CN(C(=O)c2snc(C(N)=O)c2N)C(C(=O)NC2CCCC2)c2cc(OC)ccc2OC)cc1 (stereo unspecified)
cell number change: 23.3% | AC50 [2]: 25.9 µM [falling, single point]

Cc1ccc(CNC(=O)CCC2CCCN(Cc3cc4ccccc4o3)C2)o1 (stereo unspecified)
cell number change: 16% | AC50 [2]: 29.1 µM [rising, single point]

Nc1nonc1-c1noc(-c2ccccc2Br)n1
AC50 [1]: 0.651 µM [falling, full curve, poor fit]
